# Results are given in words; binding and its absence hold for the method and conditions named. Binding seen in cells or lysates may run through a third protein. Some binding calls cover weakened binding; strength is not graded here.
# The chains behind the UniProt entries cited, without tags or fusion partners. Where a name states a change or a piece, a line headed by the entry shows the natural chain unless it says otherwise. A line that says so, or that is headed by a name, gives the form on record, which may keep a tag or linker.
# UniProt P61169: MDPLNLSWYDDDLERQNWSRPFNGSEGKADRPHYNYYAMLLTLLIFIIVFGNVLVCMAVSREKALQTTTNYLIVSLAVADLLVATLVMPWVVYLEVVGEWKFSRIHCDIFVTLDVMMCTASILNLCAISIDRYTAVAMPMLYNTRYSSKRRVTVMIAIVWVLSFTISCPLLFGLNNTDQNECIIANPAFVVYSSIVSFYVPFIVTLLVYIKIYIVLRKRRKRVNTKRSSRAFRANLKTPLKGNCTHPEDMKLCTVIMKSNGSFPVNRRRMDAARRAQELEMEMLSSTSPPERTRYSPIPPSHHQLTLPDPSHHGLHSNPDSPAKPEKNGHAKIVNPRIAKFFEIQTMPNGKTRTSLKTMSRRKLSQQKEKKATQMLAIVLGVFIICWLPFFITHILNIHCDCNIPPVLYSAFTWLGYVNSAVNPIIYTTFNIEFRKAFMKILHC
# UniProt P14416: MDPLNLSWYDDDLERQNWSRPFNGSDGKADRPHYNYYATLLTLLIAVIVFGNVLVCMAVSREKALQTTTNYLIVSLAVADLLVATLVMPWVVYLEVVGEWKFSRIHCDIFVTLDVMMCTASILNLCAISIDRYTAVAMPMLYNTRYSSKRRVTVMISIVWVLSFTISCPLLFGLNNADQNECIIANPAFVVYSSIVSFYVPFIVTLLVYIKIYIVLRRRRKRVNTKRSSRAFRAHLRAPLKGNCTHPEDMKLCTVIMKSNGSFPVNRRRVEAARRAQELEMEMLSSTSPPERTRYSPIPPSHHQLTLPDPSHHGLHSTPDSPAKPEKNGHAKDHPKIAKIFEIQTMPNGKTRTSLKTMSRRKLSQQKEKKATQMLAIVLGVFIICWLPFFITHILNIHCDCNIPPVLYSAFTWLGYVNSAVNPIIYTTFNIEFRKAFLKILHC
# dopamine D2 receptor short isoform fused to Renilla luciferase (D2SR^Rluc) (P14416, form named): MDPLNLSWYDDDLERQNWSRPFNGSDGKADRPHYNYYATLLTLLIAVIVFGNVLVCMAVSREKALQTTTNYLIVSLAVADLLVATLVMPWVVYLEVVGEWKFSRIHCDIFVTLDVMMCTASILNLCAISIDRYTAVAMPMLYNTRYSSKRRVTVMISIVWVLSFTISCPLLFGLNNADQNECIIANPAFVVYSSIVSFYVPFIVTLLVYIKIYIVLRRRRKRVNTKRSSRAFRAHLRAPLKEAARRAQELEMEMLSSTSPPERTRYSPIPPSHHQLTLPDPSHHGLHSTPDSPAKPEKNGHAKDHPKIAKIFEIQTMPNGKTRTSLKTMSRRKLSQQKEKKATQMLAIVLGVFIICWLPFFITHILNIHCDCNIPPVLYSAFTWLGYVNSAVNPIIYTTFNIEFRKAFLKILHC
# UniProt Q9R0C9: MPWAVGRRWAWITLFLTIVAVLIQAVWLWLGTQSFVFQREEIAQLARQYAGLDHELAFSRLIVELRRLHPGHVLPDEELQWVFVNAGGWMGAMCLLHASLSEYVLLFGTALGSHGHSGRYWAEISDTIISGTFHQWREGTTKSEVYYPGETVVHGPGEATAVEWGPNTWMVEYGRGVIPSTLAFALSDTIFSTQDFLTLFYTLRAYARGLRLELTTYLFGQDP
# UniProt Q99720: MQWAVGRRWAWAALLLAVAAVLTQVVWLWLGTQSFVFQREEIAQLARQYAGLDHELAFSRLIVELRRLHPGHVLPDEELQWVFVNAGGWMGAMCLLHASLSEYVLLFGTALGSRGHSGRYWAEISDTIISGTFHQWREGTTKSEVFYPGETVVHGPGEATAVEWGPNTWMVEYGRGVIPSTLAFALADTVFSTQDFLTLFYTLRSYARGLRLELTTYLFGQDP
# Experiments:
# [1] = molecular target: dopamine D2 receptor (D2R), endogenous in rat brain (rat (endogenous in brain sections)) (UniProt P61169); assay: proximity ligation; in situ PLA on free-floating formalin-fixed rat brain sections (30 μm, Bregma 1.0 mm); mouse anti-D2R and rabbit anti-sigma1R primary antibodies; control with only one primary antibody
# [2] = molecular target: dopamine D2 receptor long isoform fused to Renilla luciferase (D2LR^Rluc) (UniProt P14416); assay: FRET or BRET; BRET2 competition in HEK293T cells; constant (1 μg) D2LR^Rluc and δ1R^GFP2 plasmids, increasing (0.1-8 μg) plasmid of untagged wild-type D2LR, D2SR or δ1R
# [3] = molecular target: dopamine D2 receptor short isoform fused to Renilla luciferase (D2SR^Rluc) (UniProt P14416); assay: FRET or BRET; BRET2 saturation in HEK293T cells 48 h after transfection; constant (1 μg) D2R^Rluc plasmid, increasing (0.12-5 μg) δ1R^GFP2 plasmid; coelenterazine-400a 5 μM; cell suspension in PBS
# [4] = molecular target: dopamine D2 receptor long isoform fused to Renilla luciferase (D2LR^Rluc) (UniProt P14416); assay: as above
binding [1],binding [2],binding [3],binding [4],Substance
binds,,,,"sigma 1 receptor (δ1R), endogenous in rat brain (from UniProt Q9R0C9 1-223)"
,binds,binds,binds,sigma 1 receptor fused to GFP2 (δ1R^GFP2) (from UniProt Q99720 1-223)

# Reference: PMC6728299
